According to PubChem BioAssay AID540256 (National Center for Advancing Translational Sciences (NCATS), 2011):
In all, about 300,000 compounds went through this assay and about 3,700 (1.2%) were called active. The inconclusive results got no clear call from the source; some entries with a clear call stand among them for comparison. Calls follow the shape of the full dose curve; tested in HEK293 cells. A potency beside an inconclusive call is a rough fit, not a confirmed value.

Assay: qHTS for Inhibitors of binding or entry into cells for Lassa Virus; also: nearly all actives have a fitted effect of over 50% in size
Conditions: Lassa virus pseudotype entry inhibition, cell reporter; series mostly up to 37.9 µM
Potency is read from the fitted curve at half-maximal effect.

| Compound | Potency |
| --- | --- |
| Cc1ccc(C)c(NC(=O)CN(C)S(=O)(=O)c2cccc3nsnc23)c1 | inactive |
| COCCCNC(=O)COc1ccc2oc3c(c2c1)CCCC3 | inconclusive: 10 µM [inhibitor, partial curve, poor fit] |
| CCN(CC)c1nc2ccccc2nc1C(=O)Nc1ccc(C(C)=O)cc1 | inconclusive: 31.6 µM [inhibitor, single point] |
| CC(=O)N(C)c1ccc(OCC(O)Cn2c(C)nc3ccccc32)cc1 (configuration not stated) | inconclusive: 6.31 µM [inhibitor, full curve, poor fit] |
| Cc1cc(C(=O)Nc2ccccc2C(=O)N2CCCCC2)ccc1[N+](=O)[O-] | inconclusive: 11.2 µM [inhibitor, single point] |
| CCC(CC)C(=O)Nc1ccc2nc(SCC(=O)N3CCCC3)sc2c1 | inactive |
| COc1ccc(NC(=O)CN2C(=O)CC(c3ccc(C)c(C)c3)=Nc3ccccc32)cc1OC | inconclusive: 17.8 µM [inhibitor, single point] |
| COc1ccc(Cc2nc3ccc(C(=O)NCc4ccccc4C)cc3o2)cc1 | inconclusive: 17.8 µM [inhibitor, partial curve, poor fit] |
| O=C(NN1CCCCC1)c1cccc(COc2ccc(Cl)cc2)c1 | inconclusive: 1.26 µM [activator, single point] |
| O=C(CSc1nc2cc(C(F)(F)F)ccc2n1Cc1ccccc1)NC1CCS(=O)(=O)C1 (configuration not stated) | inconclusive: 29.1 µM [inhibitor, single point] |
| COc1ccc(OCC(=O)Nc2ccc3oc(-c4ccncc4)nc3c2)cc1 | inconclusive: 7.94 µM [activator, partial curve, poor fit] |
| O=C(Nc1ccc2c(c1)OCCO2)N1CCOCC1 | inconclusive: 35.5 µM [inhibitor, single point] |
| COc1cc(/C=C/C(=O)OCC(=O)NC(=O)NCc2ccco2)ccc1OC(F)F | inconclusive: 35.5 µM [inhibitor, partial curve, poor fit] |
| CC(=O)C(N=Nc1ccccc1)(Sc1nnc(-c2ccccc2)n1-c1ccccc1)C(C)=O | inconclusive: 7.3 µM [inhibitor, partial curve] |
| N=c1n(CCO)c2ccccc2n1Cc1ccc(Cl)cc1 | inactive |
| Cc1ccc(-n2cccn2)c(CN2CCCC(C(=O)c3ccc4c(c3)OCO4)C2)c1 (configuration not stated) | inconclusive: 35.5 µM [inhibitor, single point] |
| CCn1c(C)nnc1SCC(=O)Nc1ccc(N2CCOCC2)cc1 | inconclusive: 4.47 µM [inhibitor, full curve, poor fit] |
| COc1ccc(C2Oc3ccccc3C3=C2C(c2cccs2)n2ncnc2N3)cc1 (configuration not stated) | inconclusive: 29.1 µM [inhibitor, single point] |
| CCc1ccc(CN2CCC(CO)(CC3CCCCO3)CC2)o1 (configuration not stated) | inactive |
| Cc1ccc2c(COC(=O)CC3Sc4ccccc4NC3=O)cc(=O)oc2c1C (configuration not stated) | inactive |
| CCN(CC)CCNC(=O)Cn1ncc2c3ccccc3n(Cc3ccc(Cl)cc3)c2c1=O | inactive |
| CCOC(=O)C1(Cc2cccc(Cl)c2)CCCN(C(=O)c2cccc(C)n2)C1 (configuration not stated) | inconclusive: 8.91 µM [inhibitor, partial curve, poor fit] |
| CC(=O)Oc1ccc(N2C(=O)C3C(C2=O)C(C(=O)c2ccc(Cl)cc2)N2CCCC32)cc1 (configuration not stated) | inconclusive: 11.2 µM [inhibitor, partial curve, poor fit] |

| Compound | Potency |
| --- | --- |
| Cc1ccc2nc(N(CCCN(C)C)C(=O)c3ccc(S(=O)(=O)N4CCCCCC4)cc3)sc2c1 | inconclusive: 35.5 µM [inhibitor, single point] |
| CCc1cccc(NC(=O)CCc2nc3cccnc3n2Cc2ccc(OC)cc2)c1 | inconclusive: 11.2 µM [inhibitor, single point] |
| Cc1nc2ncnn2c(N2CCN(C(=O)c3cccc(F)c3)CC2)c1Cc1ccccc1 | inconclusive: 10.3 µM [inhibitor, partial curve, poor fit] |
| COCCN(Cc1ccccc1)C(=S)Nc1ccc(OC(F)F)cc1 | active: 16.4 µM |
| c1ccc2c(c1)oc1c(Nc3ccc(CN4CCOCC4)cc3)ncnc12 | inconclusive: 35.5 µM [inhibitor, single point] |
| Cc1ccc(OCCN2C(=O)c3ccccc3C2=O)c([N+](=O)[O-])c1 | inactive |
| COc1ccc2nc(SC(C)C(=O)NC3CCCC3)[nH]c2c1 (configuration not stated) | inconclusive: 15.8 µM [activator, partial curve, poor fit] |
| O=S(=O)([N-]c1nc2ccccc2nc1-[n+]1ccc(Cc2ccccc2)cc1)c1ccc(Br)s1 | inconclusive: 14.1 µM [inhibitor, partial curve, poor fit] |
| Cn1c(=O)[nH]c(=O)c2c1nc(N1CCOCC1)n2Cc1ccccc1 | inactive |
| CCOc1ccc(OCc2ccc(C(=O)NN=Cc3ccc[nH]3)cc2)cc1 | inconclusive: 0.158 µM [inhibitor, full curve, poor fit] |
| Cc1cc(C)c(S(=O)(=O)c2ccccc2)c(OC(=O)c2c(F)cccc2F)n1 | inactive |
| CC(C(=O)N1CCc2ccccc21)N1CCN(S(=O)(=O)c2cccs2)CC1 (configuration not stated) | inconclusive: 5.62 µM [inhibitor, partial curve, poor fit] |
| Cc1ccc2c(c1)c1c(c(=O)n(-c3cccc(Cl)c3)c(=O)n1CC(=O)NCC1CCCO1)n2C (configuration not stated) | inactive |
| Cc1ccc(C)c(NC(=S)N2CCN(S(C)(=O)=O)CC2)c1 | inactive |
| Cc1cc2cccc(C)c2nc1SCC(=O)NNC(=O)c1ccco1 | inactive |
| Cc1cccc(NC(=O)c2ccc(NCCc3ccccc3)c([N+](=O)[O-])c2)c1 | inconclusive: 0.794 µM [inhibitor, full curve, poor fit] |
| Cc1c(C(=O)NCc2ccc(F)cc2)oc2ccc(S(=O)(=O)N3CCCCC3)cc12 | inconclusive: 35.5 µM [inhibitor, single point] |
| CN(C)c1ccc(/C=C/c2nc(-c3ccccc3O)n(-c3ccccc3)n2)cc1 | inconclusive: 6.31 µM [inhibitor, partial curve, poor fit] |
| Cc1c(Cl)cccc1NC(=S)NCC(C)C | inconclusive: 23.1 µM [activator, partial curve, poor fit] |
| CN(C)c1ccc(NC(=O)CN2CCc3ccccc3C2)cc1 | inconclusive: 14.1 µM [inhibitor, single point] |
| Cc1ccc(C(=O)COC(=O)c2ccncc2)cc1[N+](=O)[O-] | inactive |
| CC(C)(C)c1ccc(OCCCC(=O)NNC(=O)c2ccccc2O)cc1 | inconclusive: 3.98 µM [inhibitor, full curve, poor fit] |
| NC(=O)c1ccccc1N/C=C/C(=O)c1ccc(Cl)cc1 | inconclusive: 0.112 µM [activator, full curve, poor fit] |

| Compound | Potency |
| --- | --- |
| CC(C)CCNC(=O)CN1C(=O)CSc2ccc(S(=O)(=O)N3CCC(C)CC3)cc21 | inactive |
| COc1ccc(C)cc1NC(=O)C(Sc1nnc(-c2ccncc2)n1-c1ccc(Cl)cc1)c1ccccc1 (configuration not stated) | inconclusive: 11.2 µM [inhibitor, partial curve, poor fit] |
| COc1ccc(Cn2c(-c3ccco3)nc3oc4ccccc4c(=O)c3c2=O)cc1 | inactive |
| Fc1ccccc1-c1nnc2ccc3ccccc3n12 | inactive |
| CC(=O)c1cccc(Nc2nc(-c3cccnc3)cs2)c1 | inconclusive: 35.5 µM [inhibitor, single point] |
| CCc1sc(C(=O)Nc2nc(-c3ccccn3)cs2)cc1C | inconclusive: 11.2 µM [inhibitor, partial curve, poor fit] |
| CCn1cc(C(=O)OCC(=O)Nc2ccc(C)c(Cl)c2)c(=O)c2ccc(C)nc21 | inactive |
| CC1CC(NC(=O)C2C3CCC(O3)C2C(=O)O)CC(C)(C)C1 (configuration not stated) | inconclusive: 3.16 µM [inhibitor, partial curve] |
| Cc1ccc(Nc2nc3ccccc3s2)c(C)c1 | active: 10 µM |
| COc1ccc(-c2noc(CSCC(=O)Nc3cc(OC)c(OC)c(OC)c3)n2)cc1OC | inactive |
| COc1ccc(Nc2c(C)cccc2C)cc1 | inactive |
| CCOC(=O)c1cc([N+](=O)[O-])cc([N+](=O)[O-])c1Sc1ncnc2nc[nH]c12 | active: 1.41 µM |
| CCOc1ccccc1-n1c(SCC(=O)N2CCCC2)nnc1-c1ccc(O)cc1 | inconclusive: 7.3 µM [inhibitor, partial curve, poor fit] |
| COCCn1c(C)cc(C(=O)CSc2nc3ccccc3c(=O)n2C(C)COC)c1C (configuration not stated) | inconclusive: 35.5 µM [inhibitor, partial curve, poor fit] |
| COc1ccc(CCNC(=O)c2ccc(-c3ccc([N+](=O)[O-])cc3)o2)cc1OC | inconclusive: 22.4 µM [inhibitor, single point] |
| C=CCc1cccc(CNc2ccc(Br)cc2)c1O | inconclusive: 32.6 µM [inhibitor, single point] |
| Cc1ccc(Cn2nc(C)cc2C(=O)Nc2ccccc2Cl)cc1 | inconclusive: 3.55 µM [activator, partial curve, poor fit] |
| CN(CC(O)COc1ccc(OCC(O)CN(C)C2CCCCC2)cc1)C1CCCCC1 (configuration not stated) | inconclusive: 35.5 µM [inhibitor, single point] |
| Cc1ccc(NC(=O)CN(C)S(=O)(=O)c2cccs2)c(Br)c1 | inconclusive: 35.5 µM [activator, single point] |
| CCCC(O)c1nc2ccccc2n1CCCOc1ccc(Cl)cc1 (configuration not stated) | inactive |
| Cc1cc(Cl)ccc1NC(=S)N1CCN(Cc2ccccc2)CC1 | inconclusive: 12.6 µM [inhibitor, partial curve, poor fit] |

By substructure, those above with an NH in an aromatic ring.

| Compound | Potency |
| --- | --- |
| COc1ccc2nc(SC(C)C(=O)NC3CCCC3)[nH]c2c1 (configuration not stated) | inconclusive: 15.8 µM [activator, partial curve, poor fit] |
| Cn1c(=O)[nH]c(=O)c2c1nc(N1CCOCC1)n2Cc1ccccc1 | inactive |
| CCOc1ccc(OCc2ccc(C(=O)NN=Cc3ccc[nH]3)cc2)cc1 | inconclusive: 0.158 µM [inhibitor, full curve, poor fit] |
| CCOC(=O)c1cc([N+](=O)[O-])cc([N+](=O)[O-])c1Sc1ncnc2nc[nH]c12 | active: 1.41 µM |

A few values from the results shown:
Value of `C=CCc1cccc(CNc2ccc(Br)cc2)c1O` under Potency: inconclusive: 32.6 µM [inhibitor, single point]
Value of `CN(CC(O)COc1ccc(OCC(O)CN(C)C2CCCCC2)cc1)C1CCCCC1` (configuration not stated) under Potency: inconclusive: 35.5 µM [inhibitor, single point]
